Experimental data from patent publication US20220062379A1, “METHODS AND COMPOSITIONS FOR MODULATING IMMUNE DYSREGULATION” (The General Hospital Corporation, priority 2019, published 2022).
At least one compound was matched to its structure with a doubt left.

Tests used:
TNF = assay: Whole blood cytokine release, TNF (ELISA); format: cell-based, human; conditions: whole blood stimulated with LPS
Experimental: (§1) Fresh, anonymized, heparinized, human blood from male donors was diluted 1:3 with RPMI containing penicillin and streptomycin. 150 μl diluted blood was added to each well of a 96 well plate then acclimatized to 37° C. and 5% CO2 for 1 hour. Inhibitors were prepared as described below then added to the diluted blood in 25 μl volume. After a further hour at 37° C. with 5% CO2, diluted blood was stimulated with LPS diluted in 25 μl RPMI containing penicillin and streptomycin to a final concentration of 1.5 ng/ml. After 18 h at 37° C. and 5% CO2, diluted blood was centrifuged at 500×g for 5 min and supernatant collected and stored at −20° C. until ELISAs were performed. Data are presented as mean inhibition relative to vehicle control ±95% confidence intervals, n=3-4 independent experiments. […]

[1] = tested on: proinflammatory cytokine release; assay: Whole blood cytokine release assay, cytokines not itemised; format: cell-based, human; conditions: in response to LPS stimulation
Experimental: as §1

SMILES | LPS stimulated TNF secretion/release from whole blood (in words) (TNF) | Effect on (proinflammatory) cytokine release in whole blood assay (in words) [1]
NC(=NCc1ccccc1)NC(=O)c1nc(Cl)c(N)nc1N [Benzamil] | substantially inhibits | –
O=c1c(O[C@@H]2O[C@H](CO)[C@@H](O)[C@H](O)[C@H]2O)c(-c2ccc(O)c(O)c2)oc2cc(O)cc(O)c12 [Isoquertecin, Isoquercetin] | – | marginal effect
